Values of other authors as cited in patent publication US8663934B2, “Cloned transmembrane receptor for 24-hydroxylated vitamin D compounds and uses thereof” (Shriners Hospital for Children, priority 2009, dated 2014).
For at least one compound, name, drawing or mass did not settle the structure.

Test system: mice
Details: cited from earlier work

CCC(C)(C)C(=O)O[C@H]1C[C@@H](C)C=C2C=C[C@H](C)[C@H](CC[C@@H]3C[C@@H](O)CC(=O)O3)[C@H]21 [simvastatin]
fracture repair: enhanced fracture repair
